{"sequences": {"note": "Protein sequences, listed by entry. Tags and fused reporters are not part of them. Lines headed by an entry give the natural chain unless they say otherwise; changes in a name come on top.", "UniProt P18054": "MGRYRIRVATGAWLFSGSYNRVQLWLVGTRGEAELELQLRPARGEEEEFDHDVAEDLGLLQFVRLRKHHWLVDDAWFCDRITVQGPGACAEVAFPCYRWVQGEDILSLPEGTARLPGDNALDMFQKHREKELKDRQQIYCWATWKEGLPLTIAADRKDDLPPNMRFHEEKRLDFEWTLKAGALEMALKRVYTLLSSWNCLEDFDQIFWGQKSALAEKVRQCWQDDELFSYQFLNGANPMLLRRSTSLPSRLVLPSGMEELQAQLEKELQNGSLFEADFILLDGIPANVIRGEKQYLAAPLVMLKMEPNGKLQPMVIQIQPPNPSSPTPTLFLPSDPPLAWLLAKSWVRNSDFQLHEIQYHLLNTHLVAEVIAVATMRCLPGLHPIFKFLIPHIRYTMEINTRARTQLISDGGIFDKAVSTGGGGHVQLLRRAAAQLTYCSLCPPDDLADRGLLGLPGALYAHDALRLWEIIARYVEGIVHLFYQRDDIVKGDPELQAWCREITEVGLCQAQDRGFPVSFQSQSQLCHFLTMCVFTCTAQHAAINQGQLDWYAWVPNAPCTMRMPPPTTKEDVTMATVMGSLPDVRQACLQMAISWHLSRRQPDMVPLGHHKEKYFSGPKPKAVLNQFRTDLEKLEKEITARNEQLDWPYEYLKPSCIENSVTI"}, "source": "PubChem BioAssay AID1671190", "about": "(National Center for Advancing Translational Sciences (NCATS), 2021)", "note": "“And” between values parts separate entries of the source, which are not always exact repeats. Identical values can stand only once. Screen size: about 580,000 compounds; about 6,100 (1.1%) were called active. The shares of active, inactive and inconclusive entries below differ from those in the screen. The call rests on the fitted dose curve; in most records, active means well fitted inhibition curve with a large enough effect; inconclusive means small, poorly fitted or top-dose-only effect, or another doubt; inactive means no such curve, though single readings can be large or run the other way. A potency beside an inconclusive call is a rough fit, not a confirmed value."}
{"target": "Polyunsaturated fatty acid lipoxygenase ALOX12 (Homo sapiens) (UniProt P18054)", "assay": "Primary qHTS assay for inhibitors of human arachidonate 12S-lipoxygenase (ALOX12): Round 2; further: potency means the concentration at half of the fitted maximal effect; on activity change, negative = inhibition: on the % scale 0 is the no-effect control and ±100 the full control effect", "conditions": "purified 12hLO, xylenol orange hydroperoxide absorbance; activity change, negative = inhibition: at 108 µM (top of the series) unless noted", "outline": "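Purified human 12hLO at 150 nM in 25 mM Hepes, 0.01% Triton X-100, pH 7.0, preincubated 15 min at room temperature with compound. Reaction started with 40 uM arachidonic acid, 30 min at room temperature. Hydroperoxide measured by Fe-xylenol orange, 573/405 nm absorbance ratio.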"}
{"molecule": "CC(=O)c1ccc(OCC(O)CN2CCN(S(=O)(=O)c3c(C)cc(C)cc3C)CC2)cc1", "note": "(stereo unspecified)", "Potency": "inconclusive: 5.62 µM [inhibitor, full curve, poor fit]"}
{"molecule": "Cc1ccc(CSc2nc(-c3ccccc3)c(C#N)c(=O)[nH]2)cc1", "Potency": "active: 39.8 µM"}
{"molecule": "O=C(O)Cn1cc(/C=C2\\SC(=O)N(c3ccccc3)C2=O)c2ccccc21", "activity change, negative = inhibition": "inactive: -17.6%"}
{"molecule": "COc1cc(/C=C/c2cc[n+](C)cc2)ccc1OCC(=O)Nc1ccccc1", "Potency": "inconclusive: 50.1 µM [inhibitor, partial curve, poor fit]"}
{"molecule": "Brc1cccc(-c2nc3ccc(Br)cn3c2Cc2ccsc2)c1", "Potency": "inconclusive: 79.4 µM [inhibitor, partial curve, poor fit]"}
{"molecule": "Cc1ccc(NC(=S)Nn2cnnc2)cc1", "Potency": "inconclusive: 70.8 µM [inhibitor, partial curve, poor fit]"}
{"molecule": "O=C(COC(=O)c1ccc(Cl)cc1Cl)Nc1cccc(S(=O)(=O)NC2=NCCC2)c1", "activity change, negative = inhibition": "inactive: -36.5%"}
{"molecule": "Cc1ccn2c(Cc3ccccc3)c(-c3ccc(Br)cc3)nc2c1", "Potency": "inconclusive: 44.7 µM [inhibitor, partial curve, poor fit]"}
{"molecule": "CCn1c(SCC(=O)Nc2sc3c(c2C(N)=O)CCC(C)C3)nnc1-c1ccco1", "note": "(stereo unspecified)", "Potency": "inconclusive: 31.6 µM [inhibitor, single point]"}
{"molecule": "C(=N\\N=C\\c1cccs1)/c1cccs1", "activity change, negative = inhibition": "inactive: 5.24%"}
{"molecule": "O=C(CCN1CCN(c2ccccc2F)CC1)Nc1ccc(F)cc1", "activity change, negative = inhibition": "inactive: 11.2%"}
{"molecule": "O=C1NCCOCCN(S(=O)(=O)c2cccs2)[C@@H]2CCCC[C@H]12", "Potency": "inconclusive: 15.8 µM [inhibitor, full curve]"}
{"molecule": "COc1ccc(-n2c(=S)[nH]c3cc(C(=O)NCCCN4CCCC4=O)ccc3c2=O)cc1OC", "Potency": "inconclusive: 1.12 µM [inhibitor, partial curve, poor fit]"}
{"molecule": "Cc1c(Cl)cccc1NC(=S)NC(=O)c1cncc(Br)c1", "Potency": "inconclusive: 28.2 µM [inhibitor, partial curve]"}
{"molecule": "CCOc1ccc(Sc2cc(C(=O)NCCc3ccccc3)c3ccccc3n2)cc1", "activity change, negative = inhibition": "inactive: -2.48%"}
{"molecule": "Cc1nc2nc(NCc3ccccc3)[nH]n2c(=O)c1CCO", "Potency": "inconclusive: 89.1 µM [inhibitor, single point]"}
{"molecule": "COC[C@H]1CCCN1C(=O)C[C@@H]1O[C@H](CNC(=O)C2CC2)[C@@H](O)[C@H]1O", "Potency": "inconclusive: 25.1 µM [inhibitor, full curve]"}
{"molecule": "O=C(Nc1ccc(N2CCCCC2)cc1)c1cncc(Br)c1", "Potency": "inconclusive: 89.1 µM [inhibitor, partial curve, poor fit]"}
{"molecule": "Cc1nc(N2CCN(c3ccccc3)CC2)nc2c1C(=O)CCC2", "Potency": "inactive and inconclusive: 224 µM [inhibitor, partial curve, poor fit]"}
{"molecule": "COc1ccc(CC(=O)NCC2CCCN(Cc3cc(OC)cc(OC)c3)C2)cc1", "note": "(stereo unspecified)", "activity change, negative = inhibition": "inactive: 5.19%"}
{"molecule": "CCOc1nc(NC(=O)NS(=O)(=O)Oc2ccccc2)nc(-c2ccccc2)n1", "Potency": "inconclusive: 5.01 µM [inhibitor, full curve, poor fit]"}
{"molecule": "CCOC(=O)N1CCN(C(=O)c2ccc3nc(N4CCCCC4)sc3c2)CC1", "activity change, negative = inhibition": "inactive: 15.2%"}
{"molecule": "COc1ccc(C(c2c(O)ccc3ccccc23)N2CCOCC2)c(OC)c1", "note": "(stereo unspecified)", "Potency": "inconclusive: 39.8 µM [inhibitor, partial curve]"}
{"molecule": "CCOc1ccc(CN2CCN(Cc3cccc4c3OCO4)CC2CCO)cc1", "note": "(stereo unspecified)", "activity change, negative = inhibition": "inactive: -8.55%"}
{"molecule": "CCOC(=O)C(Cc1c[nH]c2ccccc12)NC(=O)COc1ccc(Cl)c(C)c1", "note": "(stereo unspecified)", "Potency": "inconclusive: 141 µM [inhibitor, partial curve, poor fit]"}
{"molecule": "COc1cccc(CNC(=O)C2CCC(CNS(=O)(=O)c3ccc(Br)s3)CC2)c1", "note": "(stereo unspecified)", "Potency": "inconclusive: 7.94 µM [inhibitor, full curve, poor fit]"}
{"molecule": "Cn1ccnc1SCC(=O)Nc1cc(F)ccc1F", "activity change, negative = inhibition": "inactive: 0%"}
{"molecule": "CCc1c(C)sc(NC(=O)/C=C/C(=O)O)c1C(N)=O", "Potency": "inconclusive: 3.98 µM [inhibitor, full curve, poor fit]"}
{"molecule": "S=C(NCCc1ccccc1)NCc1ccccc1Cl", "Potency": "inconclusive: 50.1 µM [inhibitor, partial curve, poor fit]"}
{"molecule": "CCNS(=O)(=O)c1cccc(C(=O)OCc2nc3ccccc3nc2C)c1", "Potency": "inconclusive: 31.6 µM [inhibitor, full curve, poor fit]"}
{"molecule": "CSCCC(NC(=O)c1cccc(C)c1)C(=O)NNC(=O)c1cccs1", "note": "(stereo unspecified)", "activity change, negative = inhibition": "inactive: 17.8%"}
{"molecule": "COc1ccc(-c2nc(S(=O)(=O)c3ccccc3)c(N3CCCC3)o2)cc1", "Potency": "active: 4.47 µM"}
{"molecule": "O=C(Cc1cccc2cccnc12)NCCc1ccccc1", "Potency": "inconclusive: 126 µM [inhibitor, partial curve, poor fit]"}
{"molecule": "CC(C)(CNC(=S)NCc1ccccc1)CNC(=S)NCc1ccccc1", "Potency": "inconclusive: 35.5 µM [inhibitor, partial curve, poor fit]"}
{"molecule": "Cc1cccc(C)c1NC(=O)/C(=C/c1ccco1)c1ccccc1", "Potency": "inconclusive: 28.2 µM [inhibitor, partial curve, poor fit]"}
{"molecule": "CCOc1ccccc1NC(=O)COC(=O)CC(NC(N)=O)c1ccc(Cl)cc1", "note": "(stereo unspecified)", "activity change, negative = inhibition": "inactive: -20.1%"}
{"molecule": "CCOc1ccccc1N(CC(=O)NC(C)CC)S(C)(=O)=O", "note": "(stereo unspecified)", "activity change, negative = inhibition": "inactive: -0.251%"}
{"molecule": "S=c1[nH]nc(-c2cc3c(s2)-c2ccccc2CC3)o1", "Potency": "active: 39.8 µM"}
{"molecule": "FC(F)(F)c1ccccc1N/N=C/c1ccccc1Br", "Potency": "inconclusive: 6.31 µM [inhibitor, full curve, poor fit]"}
{"molecule": "O=C(c1ccc(Cl)c(Cl)c1)N1CCC(=O)N([C@H](COCc2cccc(C(F)(F)F)c2)Cc2ccccc2)CC1", "Potency": "inconclusive: 7.08 µM [inhibitor, full curve, poor fit]"}
{"molecule": "O=C(O)c1cccc(S(=O)(=O)Nc2cccc(S(=O)(=O)Nc3ccc(Br)cc3)c2)c1", "Potency": "inconclusive: 100 µM [inhibitor, single point]"}
{"molecule": "CCOC(=O)c1cc(CC)sc1NC(=O)C1CC1", "Potency": "inconclusive: 0.501 µM [inhibitor, full curve, poor fit]"}
{"molecule": "Cc1c(Cl)cccc1NCC(=O)N1CCN(S(C)(=O)=O)CC1", "Potency": "inconclusive: 1.12 µM [inhibitor, full curve, poor fit]"}
{"molecule": "COc1ccc(C[C@H](N)C(=O)NCc2c(C)ncc3c2CCNC3)cc1", "Potency": "inconclusive: 10 µM [inhibitor, full curve, poor fit]"}
{"molecule": "CCO[C@H]1OC(C(=O)N2CCN(Cc3ccc4c(c3)OCO4)CC2)=C[C@@H](c2ccc3c(c2)OCO3)[C@@H]1CCCO", "Potency": "inconclusive: 89.1 µM [inhibitor, single point]"}
{"molecule": "CCCSC1=N/C(=C\\c2ccsc2)C(=O)S1", "Potency": "inconclusive: 112 µM [inhibitor, single point]"}
{"molecule": "CN(CC(=O)N(C)c1c(N)n(Cc2ccccc2)c(=O)[nH]c1=O)Cc1ccc(-c2ccccc2)cc1", "Potency": "inconclusive: 89.1 µM [inhibitor, partial curve, poor fit]"}
{"molecule": "CN(C)CCCN1C(=O)c2cccc3c(Br)ccc(c23)C1=O", "activity change, negative = inhibition": "inactive: -6.13%"}
{"molecule": "CC(C)(C)C(=O)NC(=S)Nc1sc2c(c1C(N)=O)CCC2", "Potency": "inconclusive: 3.16 µM [inhibitor, full curve, poor fit]"}
{"molecule": "CCCCOc1ccc(CN2CCCCC2)cc1", "activity change, negative = inhibition": "inactive: 4.23%"}
{"molecule": "Cc1ccc(N(CC(=O)Nc2ccc(C)c(F)c2)S(=O)(=O)c2c(C)n[nH]c2C)cc1", "Potency": "inconclusive: 50.1 µM [inhibitor, single point]"}
{"molecule": "COc1cccc(COC(=O)CSCC(=O)Nc2ccc(C)cc2)c1OC", "activity change, negative = inhibition": "inactive: 19.1%"}
{"molecule": "O=C1c2ccccc2[C@@H]2Cc3csc[n+]3[C@H]12", "activity change, negative = inhibition": "inactive: -6.92%"}
{"molecule": "CCN(C[C@H]1N[C@@](C)(C(=O)OC)[C@H]2C(=O)N(C)C(=O)[C@@H]12)C(=O)Nc1ccc(OC)cc1", "Potency": "inconclusive: 44.7 µM [inhibitor, single point]"}
{"molecule": "CN(CCc1ccccc1)C(=O)c1ccc(NC(=O)Cc2ccc(NC(=O)C3CCN(S(=O)(=O)c4cccc([N+](=O)[O-])c4)CC3)cc2)cc1", "activity change, negative = inhibition": "inactive: 0.598%"}
{"molecule": "COc1ccc(C)cc1S(=O)(=O)Nc1ccc(Nc2cc(N3CCCCC3)nc(C)n2)cc1", "Potency": "inconclusive: 79.4 µM [inhibitor, partial curve, poor fit]"}
{"molecule": "Cc1cccc(CCN2CCN=C2Nc2ccccc2)c1", "Potency": "inconclusive: 100 µM [inhibitor, single point]"}
{"molecule": "COC(=O)c1ccc2nc(-c3ccccc3)c(Cc3ccccc3OC)n2c1", "Potency": "inconclusive: 31.6 µM [inhibitor, partial curve]"}
{"molecule": "CN(Cc1cccs1)C(=O)CN1CCN(S(=O)(=O)c2ccc3c(c2)OCCCO3)CC1", "Potency": "inconclusive: 39.8 µM [inhibitor, partial curve, poor fit]"}
{"molecule": "COc1ccc(OC)c(N(CC(=O)Nc2ccccc2)S(=O)(=O)c2ccccc2)c1", "Potency": "inconclusive: 31.6 µM [inhibitor, single point]"}
{"molecule": "Cc1ccc(C(=O)/C=C/c2cccc(OC(C)C(=O)O)c2)o1", "note": "(stereo unspecified)", "Potency": "inconclusive: 44.7 µM [inhibitor, partial curve, poor fit]"}
{"molecule": "COc1ccc(/C=C/C(=O)NCCCNC(=O)/C=C/c2ccc(OC)c(OC)c2)cc1OC", "Potency": "inconclusive: 79.4 µM [inhibitor, partial curve, poor fit]"}
{"molecule": "O=C(NCCc1ccccc1)C(=O)N/N=C/c1ccc2c(c1)OCO2", "Potency": "inconclusive: 35.5 µM [inhibitor, partial curve, poor fit]"}
{"molecule": "O=C(COc1ccccc1)NCCSCc1ccccc1Cl", "activity change, negative = inhibition": "inactive: 3.77%"}
{"molecule": "CC(C)Oc1ccc(CN2CC(C(=O)NCc3ccncc3)C3(CCOCC3)C2)cc1", "note": "(stereo unspecified)", "activity change, negative = inhibition": "inactive: 122%"}
{"molecule": "Cc1ccc(CNc2nc(NC(C)C)nc3ccsc23)c(C)c1", "Potency": "inconclusive: 50.1 µM [inhibitor, partial curve, poor fit]"}
